# Data as given in PubChem BioAssay AID504834 (National Center for Advancing Translational Sciences (NCATS), 2011).
# The campaign covered roughly 320,000 compounds. About 22,000 (6.9%) were called active. Inconclusive means that the source gave no clear call. Such entries were picked first, then a sample of the others. Calls come from the whole dose curve; as a rule, active = well fitted inhibition curve with a large enough effect; inconclusive = small, poorly fitted or top-dose-only effect, or another doubt; inactive = no such curve, though single readings can be large or run the other way. Potencies of inconclusive entries are doubtful fits and often do not repeat.
# Assay: Primary qHTS for delayed death inhibitors of the malarial parasite plastid, 96 hour incubation
# Settings: P. falciparum luciferase reporter growth; series mostly up to 28.7 µM
# Method in brief: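 Erythrocytes infected with luciferase-expressing P. falciparum were dispensed at 2% hematocrit and 0.05% parasitemia (final), then incubated with compounds 96 hours at 37 C in 5% CO2. Luminescence after detection reagent addition reported growth.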
# Potency is the fitted concentration of half-maximal effect.
row,SMILES,Potency
1,O=c1oc(-c2cccs2)nc2sc3c(c12)CCCCC3,inactive
2,COc1cc(OC)cc(-c2nc3ccccc3c(=O)n2NC(=O)c2cccnc2Cl)c1,"inconclusive: 0.738 µM [inhibitor, partial curve, poor fit]"
3,CC1(O)N(CCC(=O)Nc2cccc(F)c2)C(=O)OC12CCCCC2 (stereo not given),"inconclusive: 18.5 µM [inhibitor, single point]"
4,c1ccc(CCCN2CCN(c3ccccc3)CC2)cc1,"inconclusive: 18.5 µM [inhibitor, single point]"
5,COc1ccccc1NC(=O)N1CCN(C(=O)c2ccco2)CC1,inactive
6,CCOC(=O)CSc1nc2ccc(N3CCOCC3)cc2c(=O)n1Cc1ccccc1,"inconclusive: 8.28 µM [inhibitor, partial curve, poor fit]"
7,CCCc1nc2c(=O)n(C)c(=O)[nH]c2n1CCC,active: 10.4 µM
8,COc1cccc(C(C(=O)NC2CCCCC2)N(CC2CCCO2)C(=O)CNC(=O)c2ccco2)c1 (stereo not given),inactive
9,Clc1ccc(CNCC2CCCO2)cc1 (stereo not given),inactive
10,Cn1c(NN)nc2ccccc2c1=O,inactive
11,CN1/C(=C\C(=S)Nc2ccccc2)C(C)(C)c2ccccc21,"inconclusive: 10.4 µM [inhibitor, single point]"
12,CCOC(=O)c1c(C)[nH]c(C(=O)CSc2nnc(Nc3ccccc3F)s2)c1C,"inconclusive: 18.5 µM [inhibitor, single point]"
13,COc1cc(C(=O)NCC2CCCO2)ccc1OCc1ccc(Cl)cc1 (stereo not given),"inconclusive: 18.5 µM [inhibitor, single point]"
14,COc1ccccc1CNC(=O)CCc1ccccc1,"inconclusive: 13.1 µM [inhibitor, single point]"
15,Oc1ccc(-c2csc(Nc3ccccn3)n2)cc1,"inconclusive: 14.7 µM [inhibitor, single point]"
16,Nc1nc(-c2ccc3c(c2)OCCO3)c(CC(=O)O)s1,inactive
17,CCOc1ccc(S(=O)(=O)n2ccc(C)n2)cc1,"inconclusive: 2.08 µM [inhibitor, full curve, poor fit]"
18,CC(=O)Nc1scc(C)c1-c1nc2ccccc2s1,inactive
19,CCOC(=O)C1=C(c2ccccc2)Nc2ncnn2C1c1ccc(O)cc1 (stereo not given),"inconclusive: 18.5 µM [inhibitor, single point]"
20,CCOC(=O)C(=Cc1cn(C)c2ccc(S(=O)(=O)N(C)C)cc12)C(=O)OCC,"inconclusive: 18.5 µM [inhibitor, single point]"
21,COc1ccc(COC(=O)c2ccc(Cl)c(S(=O)(=O)N3CC(C)OC(C)C3)c2)cc1 (stereo not given),active: 6.57 µM
22,Cc1ccc(S(=O)(=O)CCC(=O)OCCOc2cccc(Br)c2)cc1,"inconclusive: 18.5 µM [inhibitor, single point]"
23,COc1ccc(C(=O)OCC[N+]2(C)CCOCC2)cc1,"inconclusive: 18.5 µM [inhibitor, single point]"
24,CCn1nc(C(=O)N2CCc3ccccc32)c2ccccc2c1=O,"inconclusive: 9.28 µM [inhibitor, single point]"
25,COc1ccccc1CC1CC(=O)N(c2ccccc2)C1=O (stereo not given),active: 9.28 µM

row,SMILES,Potency
1,COc1ccc(C(=O)N2CCN(c3ccc(N4CCOCC4)nn3)CC2)cc1OC,"inconclusive: 0.465 µM [inhibitor, full curve]"
2,CSc1nc(C2CC2)cc(-c2cccs2)c1C#N,"inconclusive: 16.5 µM [inhibitor, single point]"
3,Cc1ccc(S(=O)(=O)NC(C(=O)O)c2ccccc2)cc1 (stereo not given),"inconclusive: 18.5 µM [inhibitor, single point]"
4,CCC(c1nnc(SCC(=O)Nc2c(F)cccc2F)n1Cc1ccccc1)N(C)C (stereo not given),"inconclusive: 13.1 µM [inhibitor, single point]"
5,CC1(c2ccc3c(c2)OCCCO3)NC(=O)N(CC(=O)Nc2cccc(C#N)c2)C1=O (stereo not given),inactive
6,N#C/C(=C\c1ccc(OC(=O)c2cccs2)cc1)c1nc2ccccc2[nH]1,"inconclusive: 9.28 µM [inhibitor, single point]"
7,CCn1c(SCc2ccc(Cl)cc2Cl)nc2nc3c(cc2c1=O)CCCC3,"inconclusive: 11.7 µM [inhibitor, single point]"
8,Cc1cccc(CS(=O)(=O)Cc2ccc(C(=O)NCC3CCCO3)o2)c1 (stereo not given),"inconclusive: 0.0828 µM [inhibitor, full curve, poor fit]"
9,CC(C)CN1CCN(CCCc2ccccc2)C(CCO)C1 (stereo not given),active: 9.28 µM
10,COc1ccccc1NC(=O)Cn1nnc(C(=O)NCCc2ccccc2)c1N,"inconclusive: 13.1 µM [inhibitor, single point]"
11,CCOC(=O)Cn1c(-c2ccccc2)cc(SC)c(C#N)c1=O,inactive
12,COc1cccc(NC(=O)Nc2cccc(C(=O)O)c2)c1,"inconclusive: 18.5 µM [inhibitor, single point]"
13,Cc1ccc(/C=N/NC(=O)c2cccc(NC(=O)c3ccccc3Cl)c2)o1,active: 1.17 µM
14,COc1cccc(-c2nn(-c3ccc(C)cc3)cc2C(=O)NCC2CCCO2)c1 (stereo not given),inactive
15,CC(C)CC(C(=O)O)C(C)CC(=O)Nc1ccn(-c2ccccc2)n1 (stereo not given),inactive
16,COc1ccc(NC(=O)CN2CCN(C(=O)N3CCOCC3)CC2)cc1,active: 2.33 µM
17,Cc1c(C(=O)N2CCOCC2)c(S(=O)(=O)Nc2ccc(C(C)C)cc2)c(C)n1C,active: 10.4 µM
18,Cc1cc(Cl)nc(Cl)c1C(=O)NCc1ccc(Cl)cc1,"inconclusive: 16.5 µM [inhibitor, single point]"
19,CNC(=S)N(CCc1c(C)[nH]c2ccccc12)Cc1ccco1,"inconclusive: 16.5 µM [inhibitor, single point]"
20,COc1ccc(CCC(=O)N2CCN(c3cccc(C)c3C)CC2)cc1,"inconclusive: 0.415 µM [inhibitor, partial curve, poor fit]"
21,OC1C2CN3CCN(C2)CC1(Cc1ccccc1)C3 (stereo not given),"inconclusive: 18.5 µM [inhibitor, single point]"
22,CC(C)(C)c1[nH]c2ccccc2c1/C=N/O,inactive
23,Cc1ccc(S(=O)(=O)c2nnn3c2nc(N2CCOCC2)c2ccccc23)cc1C,"inconclusive: 11.7 µM [inhibitor, partial curve, poor fit]"
24,COc1ccc(-c2cc(C(=O)N3CCCc4ccccc43)no2)cc1OC,inactive
25,CC1CCC(NC(=O)CN(C)S(=O)(=O)c2ccc3c(c2)c(=O)n(C)c(=O)n3C)CC1 (stereo not given),"inconclusive: 4.65 µM [inhibitor, partial curve, poor fit]"

# 4 structures out of the list, arranged by number of heavy atoms, falling:
row,SMILES,Potency
17,Cc1c(C(=O)N2CCOCC2)c(S(=O)(=O)Nc2ccc(C(C)C)cc2)c(C)n1C,active: 10.4 µM
7,CCn1c(SCc2ccc(Cl)cc2Cl)nc2nc3c(cc2c1=O)CCCC3,"inconclusive: 11.7 µM [inhibitor, single point]"
16,COc1ccc(NC(=O)CN2CCN(C(=O)N3CCOCC3)CC2)cc1,active: 2.33 µM
2,CSc1nc(C2CC2)cc(-c2cccs2)c1C#N,"inconclusive: 16.5 µM [inhibitor, single point]"

# (list continues)

row,SMILES,Potency
1,COc1ccc(-c2nnc(SCC(=O)c3ccc[nH]3)n2-c2ccccc2)cc1,"inconclusive: 18.5 µM [inhibitor, single point]"
2,COCCCNC(=O)C1c2ccccc2Oc2ccccc21,"inconclusive: 13.1 µM [inhibitor, partial curve, poor fit]"
3,CCCCCCc1cc2cc(S(=O)(=O)c3ccc(F)c(Cl)c3)c(=O)oc2cc1O,"inconclusive: 1.85 µM [inhibitor, full curve]"
4,Cc1cccc(NC(=O)c2cccc(OC(=S)N3CCOCC3)c2)c1C,active: 1.85 µM
5,CS(=O)(=O)c1nc(S(=O)(=O)c2ccc(Cl)cc2)c(N2CCN(CCO)CC2)s1,"inconclusive: 11.7 µM [inhibitor, partial curve]"
6,CCCc1nc(SCC(=O)c2ccc(OC)cc2)c2ccccc2n1,inactive
7,N#CCC(=O)Nc1ccc(C(=O)OCC(=O)NC2CCCCCC2)cc1,"inconclusive: 18.5 µM [inhibitor, single point]"
8,O=C1C2CC=CCC2C(=O)N1n1cnnc1 (stereo not given),inactive
9,O=c1[nH]nc(Sc2ncnc3sccc23)n1CCc1ccccc1,active: 9.28 µM
10,COc1cc(NC(=S)NN2CCN(C)CC2)cc(OC)c1,inactive
11,Cc1noc(/C=C/N(C)C)c1S(=O)(=O)N1CCCC(C(=O)NCCC2=CCCCC2)C1 (stereo not given),"inconclusive: 18.5 µM [inhibitor, single point]"
12,C=CCN(CC=C)C(=S)NC(=O)c1ccc(OC)c(Br)c1,active: 14.7 µM
13,COC(=O)c1ccc(COC(=O)c2nn(C)c(=O)c3ccccc23)cc1,inactive
14,CC(=O)N=c1c(C#N)cc2c(=O)n3cccc(C)c3nc2n1CCCOC(C)C,active: 10.4 µM
15,COc1ccc(NS(=O)(=O)c2cccc(Cl)c2Cl)cc1S(=O)(=O)N1CCCCC1,"inconclusive: 3.29 µM [inhibitor, single point]"
16,O=C(CS(=O)(=O)c1ccccc1)N(CCCN1CCOCC1)c1nc2c(F)cccc2s1,inactive
17,O=C(CSc1ccc(-c2ccc(F)cc2)nn1)Nc1ccc2c(c1)OCCO2,inactive
18,CC(C)CC(=O)N/C(N)=N/c1nc2ccccc2o1,inactive
19,C/C(CC(=O)Nc1ccc(Cl)cc1C(F)(F)F)=N\NC(=O)c1ccccn1,inactive
20,Oc1c(C(Nc2nc3ccccc3s2)c2ccco2)ccc2cccnc12 (stereo not given),"inconclusive: 10.4 µM [inhibitor, partial curve]"
21,COc1ccc(Cl)cc1-c1nc(-c2ccc(NC(=O)c3cccs3)cc2)no1,inactive
22,O=C(Nc1ccccc1-c1nc2ccccc2[nH]1)c1ccc(S(=O)(=O)N2CCCCC2)cc1,active: 2.94 µM
23,O=C(CSc1nnc(-c2cccnc2)o1)Nc1ccc(Br)cc1,inactive
24,CC(C(=O)N1CCc2ccccc21)N1CCN(c2cccc(C(F)(F)F)c2)CC1 (stereo not given),"inconclusive: 13.1 µM [inhibitor, single point]"
25,O=C(c1cc(COc2ccc(F)cc2Cl)on1)N1CCCC(OCc2cccnc2)C1 (stereo not given),"inconclusive: 3.29 µM [inhibitor, full curve]"
